# The mice bore no tumour; each value counts animals alive of those treated. Counts of survivors are from the toxicity check (mostly the fifth day) where no day follows; animals may have died later. Schedule codes are those of the source, read here as Q, the interval in days (D) or hours (H), X, the number of doses. Some entries were tested several times; their values stand side by side, smallest first.
# System: B6D2F1 mice, nontumored toxicity test, survival
# Assay: NCI In Vivo Anticancer Drug Screen. Data for tumor model Nontumored Animals (Toxicity Test) in B6D2F1 (BDF1) mice
smiles,measurement,setting,value
CC(CN1CC(=O)NC(=O)C1)N1CC(=O)NC(=O)C1 (configuration not stated),survivor count,"dose: 1.6 mg/kg/injection, schedule: Q03HX016 (oral), vehicle: steroid suspending solution",6 of 6
same,survivor count,"dose: 1.6 mg/kg/injection, schedule: Q03HX024 (ip), vehicle: steroid suspending solution",6 of 6
same,survivor count,"dose: 1.6 mg/kg/injection, schedule: Q03HX024 (oral), vehicle: steroid suspending solution",6 of 6
same,survivor count,"dose: 3.2 mg/kg/injection, schedule: Q03HX016 (oral), vehicle: steroid suspending solution",6 of 6
same,survivor count,"dose: 3.2 mg/kg/injection, schedule: Q03HX024 (ip), vehicle: steroid suspending solution",5 of 5
same,survivor count,"dose: 3.2 mg/kg/injection, schedule: Q03HX024 (oral), vehicle: steroid suspending solution",6 of 6
same,survivor count,"dose: 6.3 mg/kg/injection, schedule: Q03HX016 (oral), vehicle: steroid suspending solution",6 of 6
same,survivor count,"dose: 6.3 mg/kg/injection, schedule: Q03HX024 (ip), vehicle: steroid suspending solution",6 of 6
same,survivor count,"dose: 6.3 mg/kg/injection, schedule: Q03HX024 (oral), vehicle: steroid suspending solution",6 of 6
same,survivor count,"dose: 8.0 mg/kg/injection, schedule: Q01DX009 (ip), vehicle: saline with Tween-80",8 of 8
same,survivor count,"dose: 8.0 mg/kg/injection, schedule: Q01DX009 (oral), vehicle: saline with Tween-80",8 of 8
same,survivor count,"dose: 8.0 mg/kg/injection, schedule: Q01DX009 (sc), vehicle: saline with Tween-80",8 of 8
same,survivor count,"dose: 8.0 mg/kg/injection, schedule: Q03HX016 (ip), vehicle: saline with Tween-80",8 of 8
same,survivor count,"dose: 8.0 mg/kg/injection, schedule: Q03HX024 (ip), vehicle: saline with Tween-80",8 of 8
same,survivor count,"dose: 12.5 mg/kg/injection, schedule: Q03HX016 (oral), vehicle: steroid suspending solution",6 of 6
same,survivor count,"dose: 12.5 mg/kg/injection, schedule: Q03HX024 (ip), vehicle: steroid suspending solution",6 of 6
same,survivor count,"dose: 12.5 mg/kg/injection, schedule: Q03HX024 (oral), vehicle: steroid suspending solution",6 of 6
same,survivor count,"dose: 12.5 mg/kg/injection, schedule: Q04DX003 (ip), vehicle: steroid suspending solution",6 of 6
same,survivor count,"dose: 16.0 mg/kg/injection, schedule: Q01DX009 (ip), vehicle: saline with Tween-80",8 of 8
same,survivor count,"dose: 16.0 mg/kg/injection, schedule: Q01DX009 (oral), vehicle: saline with Tween-80",8 of 8
same,survivor count,"dose: 16.0 mg/kg/injection, schedule: Q01DX009 (sc), vehicle: saline with Tween-80",8 of 8
same,survivor count,"dose: 16.0 mg/kg/injection, schedule: Q03HX016 (ip), vehicle: saline with Tween-80",8 of 8
same,survivor count,"dose: 16.0 mg/kg/injection, schedule: Q03HX024 (ip), vehicle: saline with Tween-80",7 of 7
same,survivor count,"dose: 25.0 mg/kg/injection, schedule: Q03HX024 (ip), vehicle: steroid suspending solution",6 of 6
same,survivor count,"dose: 25.0 mg/kg/injection, schedule: Q04DX003 (ip), vehicle: steroid suspending solution",6 of 6
same,survivor count,"dose: 25.0 mg/kg/injection, schedule: Q04DX003 (oral), vehicle: steroid suspending solution",6 of 6
same,survivor count,"dose: 32.0 mg/kg/injection, schedule: Q01DX009 (ip), vehicle: saline with Tween-80",7 of 8 and 8 of 8
same,survivor count,"dose: 32.0 mg/kg/injection, schedule: Q01DX009 (oral), vehicle: saline with Tween-80",7 of 7 and 8 of 8
same,survivor count,"dose: 32.0 mg/kg/injection, schedule: Q01DX009 (sc), vehicle: saline with Tween-80",8 of 8
same,survivor count,"dose: 32.0 mg/kg/injection, schedule: Q03HX016 (ip), vehicle: saline with Tween-80",7 of 8
same,survivor count,"dose: 32.0 mg/kg/injection, schedule: Q03HX024 (ip), vehicle: saline with Tween-80",8 of 8
same,survivor count,"dose: 50.0 mg/kg/injection, schedule: Q01DX001 (ip), vehicle: Klucel (hydroxypropylcellulose) (HPC)",10 of 10
same,survivor count,"dose: 50.0 mg/kg/injection, schedule: Q04DX003 (ip), vehicle: steroid suspending solution",6 of 6
same,survivor count,"dose: 50.0 mg/kg/injection, schedule: Q04DX003 (oral), vehicle: steroid suspending solution",6 of 6
same,survivor count,"dose: 64.0 mg/kg/injection, schedule: Q01DX009 (ip), vehicle: saline with Tween-80",8 of 8
same,survivor count,"dose: 64.0 mg/kg/injection, schedule: Q01DX009 (oral), vehicle: saline with Tween-80",8 of 8
same,survivor count,"dose: 64.0 mg/kg/injection, schedule: Q01DX009 (sc), vehicle: saline with Tween-80",8 of 8
same,survivor count,"dose: 64.0 mg/kg/injection, schedule: Q03HX016 (ip), vehicle: saline with Tween-80",6 of 8
same,survivor count,"dose: 64.0 mg/kg/injection, schedule: Q03HX024 (ip), vehicle: saline with Tween-80",8 of 8
same,survivor count,"dose: 64.0 mg/kg/injection, schedule: Q04DX003 (ip), vehicle: saline with Tween-80",8 of 8
same,survivor count,"dose: 64.0 mg/kg/injection, schedule: Q04DX003 (sc), vehicle: saline with Tween-80",8 of 8
same,survivor count,"dose: 64.0 mg/kg/injection, schedule: Q08DX002 (ip), vehicle: saline with Tween-80",6 of 6
same,survivor count,"dose: 65.0 mg/kg/injection, schedule: Q04DX003 (oral), vehicle: Klucel (hydroxypropylcellulose) (HPC)",10 of 10
same,survivor count,"dose: 100.0 mg/kg/injection, schedule: Q01DX001 (ip), vehicle: Klucel (hydroxypropylcellulose) (HPC)","10 of 10, 6 of 6, 8 of 8"
same,survivor count,"dose: 100.0 mg/kg/injection, schedule: Q04DX003 (ip), vehicle: steroid suspending solution",6 of 6
same,survivor count,"dose: 100.0 mg/kg/injection, schedule: Q04DX003 (oral), vehicle: steroid suspending solution",6 of 6
same,survivor count,"dose: 108.0 mg/kg/injection, schedule: Q04DX003 (oral), vehicle: Klucel (hydroxypropylcellulose) (HPC)",10 of 10 and 9 of 9
same,survivor count,"dose: 128.0 mg/kg/injection, schedule: Q01DX009 (oral), vehicle: saline with Tween-80",7 of 7 and 8 of 8
same,survivor count,"dose: 128.0 mg/kg/injection, schedule: Q01DX009 (sc), vehicle: saline with Tween-80",8 of 8
same,survivor count,"dose: 128.0 mg/kg/injection, schedule: Q03HX016 (ip), vehicle: saline with Tween-80",8 of 8
same,survivor count,"dose: 128.0 mg/kg/injection, schedule: Q03HX024 (ip), vehicle: saline with Tween-80",8 of 8
same,survivor count,"dose: 128.0 mg/kg/injection, schedule: Q04DX003 (ip), vehicle: saline with Tween-80",8 of 8
same,survivor count,"dose: 128.0 mg/kg/injection, schedule: Q04DX003 (sc), vehicle: saline with Tween-80",8 of 8
same,survivor count,"dose: 128.0 mg/kg/injection, schedule: Q08DX002 (ip), vehicle: saline with Tween-80",8 of 8
same,survivor count,"dose: 180.0 mg/kg/injection, schedule: Q04DX003 (oral), vehicle: Klucel (hydroxypropylcellulose) (HPC)",10 of 10
same,survivor count,"dose: 200.0 mg/kg/injection, schedule: Q01DX001 (ip), vehicle: Klucel (hydroxypropylcellulose) (HPC)","10 of 10, 6 of 6, 8 of 8"
same,survivor count,"dose: 200.0 mg/kg/injection, schedule: Q04DX003 (ip), vehicle: steroid suspending solution",6 of 6
same,survivor count,"dose: 200.0 mg/kg/injection, schedule: Q04DX003 (oral), vehicle: steroid suspending solution",6 of 6
same,survivor count,"dose: 200.0 mg/kg/injection, schedule: Q08DX002 (oral), vehicle: steroid suspending solution",6 of 6
same,survivor count,"dose: 256.0 mg/kg/injection, schedule: Q04DX003 (ip), vehicle: saline with Tween-80",8 of 8
same,survivor count,"dose: 256.0 mg/kg/injection, schedule: Q04DX003 (oral), vehicle: saline with Tween-80",8 of 8
same,survivor count,"dose: 256.0 mg/kg/injection, schedule: Q04DX003 (sc), vehicle: saline with Tween-80",8 of 8
same,survivor count,"dose: 256.0 mg/kg/injection, schedule: Q08DX002 (ip), vehicle: saline with Tween-80",8 of 8
same,survivor count,"dose: 300.0 mg/kg/injection, schedule: Q04DX003 (oral), vehicle: Klucel (hydroxypropylcellulose) (HPC)",10 of 10
same,survivor count,"dose: 400.0 mg/kg/injection, schedule: Q01DX001 (ip), vehicle: Klucel (hydroxypropylcellulose) (HPC)","10 of 10, 6 of 6, 8 of 8"
same,survivor count,"dose: 400.0 mg/kg/injection, schedule: Q04DX003 (oral), vehicle: steroid suspending solution",6 of 6
same,survivor count,"dose: 400.0 mg/kg/injection, schedule: Q08DX002 (oral), vehicle: steroid suspending solution",6 of 6
same,survivor count,"dose: 500.0 mg/kg/injection, schedule: Q04DX003 (oral), vehicle: Klucel (hydroxypropylcellulose) (HPC)",10 of 10
same,survivor count,"dose: 512.0 mg/kg/injection, schedule: Q04DX003 (ip), vehicle: saline with Tween-80",8 of 8
same,survivor count,"dose: 512.0 mg/kg/injection, schedule: Q04DX003 (oral), vehicle: saline with Tween-80",7 of 8 and 8 of 8
same,survivor count,"dose: 512.0 mg/kg/injection, schedule: Q04DX003 (sc), vehicle: saline with Tween-80",8 of 8
same,survivor count,"dose: 512.0 mg/kg/injection, schedule: Q08DX002 (ip), vehicle: saline with Tween-80",6 of 7
same,survivor count,"dose: 800.0 mg/kg/injection, schedule: Q01DX001 (ip), vehicle: Klucel (hydroxypropylcellulose) (HPC)","8 of 10, 6 of 6, 8 of 8"
same,survivor count,"dose: 800.0 mg/kg/injection, schedule: Q04DX003 (oral), vehicle: steroid suspending solution",6 of 6
same,survivor count,"dose: 800.0 mg/kg/injection, schedule: Q08DX002 (oral), vehicle: steroid suspending solution",6 of 6
same,survivor count,"dose: 840.0 mg/kg/injection, schedule: Q04DX003 (oral), vehicle: Klucel (hydroxypropylcellulose) (HPC)",10 of 10
same,survivor count,"dose: 1024.0 mg/kg/injection, schedule: Q04DX003 (ip), vehicle: saline with Tween-80",6 of 8
same,survivor count,"dose: 1024.0 mg/kg/injection, schedule: Q04DX003 (oral), vehicle: saline with Tween-80",7 of 8 and 8 of 8
same,survivor count,"dose: 1024.0 mg/kg/injection, schedule: Q04DX003 (sc), vehicle: saline with Tween-80",8 of 8
same,survivor count,"dose: 1024.0 mg/kg/injection, schedule: Q08DX002 (ip), vehicle: saline with Tween-80",6 of 8
same,survivor count,"dose: 1600.0 mg/kg/injection, schedule: Q08DX002 (oral), vehicle: steroid suspending solution",6 of 6
same,survivor count,"dose: 2048.0 mg/kg/injection, schedule: Q04DX003 (oral), vehicle: saline with Tween-80","7 of 8, 7 of 7, 8 of 8"
